Results from one PubChem assay

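A panel of P. falciparum strains inside erythrocytes is exposed to compounds for three days, then a DNA-binding dye reports the amount of parasite DNA.
Each compound was titrated across a series from about 0.000037 to 29 µM.
The number is the fitted AC50, the concentration giving a half-maximal change in signal; a lower value means higher potency, whether the curve shows a decrease or an increase.
Calls follow the curve class and fit quality: every row here is inconclusive, covering signal-raising curves and weak, poorly fitted, partial or highest-dose-only inhibition curves.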

Values are in µM.
All entries here are filed as inconclusive.
Only part of the assay is shown, chiefly results filed as inconclusive.
Potencies fitted to partial, single-point or poorly fitting curves are rough.

structure	condition	fitted potency (µM)	remark
CCOc1ccc(Cc2nccc3cc(OCC)c(OCC)cc23)cc1OCC	CP237	3.162	inhibitor, partial curve, poor fit
CCOc1ccc(Cc2nccc3cc(OCC)c(OCC)cc23)cc1OCC	CP217	3.548	inhibitor, single point
CCOc1ccc(Cc2nccc3cc(OCC)c(OCC)cc23)cc1OCC	HB3	3.162	inhibitor, single point
CCOc1ccc(Cc2nccc3cc(OCC)c(OCC)cc23)cc1OCC	CP291	2.558	inhibitor, partial curve, poor fit
CCOc1ccc(Cc2nccc3cc(OCC)c(OCC)cc23)cc1OCC	CP201	5.726	inhibitor, partial curve, poor fit
CCOc1ccc(Cc2nccc3cc(OCC)c(OCC)cc23)cc1OCC	PC49	0.0018	inhibitor, full curve, poor fit
CCOc1ccc(Cc2nccc3cc(OCC)c(OCC)cc23)cc1OCC	CP211	2.869	inhibitor, partial curve, poor fit
CCOc1ccc(Cc2nccc3cc(OCC)c(OCC)cc23)cc1OCC	CP194	6.424	inhibitor, single point
CCOc1ccc(Cc2nccc3cc(OCC)c(OCC)cc23)cc1OCC	TAB165	7.943	inhibitor, single point
CCOc1ccc(Cc2nccc3cc(OCC)c(OCC)cc23)cc1OCC	CP335	7.208	inhibitor, single point
CCOc1ccc(Cc2nccc3cc(OCC)c(OCC)cc23)cc1OCC	3D7	7.08	inhibitor, single point
CCOc1ccc(Cc2nccc3cc(OCC)c(OCC)cc23)cc1OCC	CP191	6.31	inhibitor, single point
CCOc1ccc(Cc2nccc3cc(OCC)c(OCC)cc23)cc1OCC	PC26	5.103	inhibitor, single point
CCOc1ccc(Cc2nccc3cc(OCC)c(OCC)cc23)cc1OCC	CP215	5.726	inhibitor, single point
CCOc1ccc(Cc2nccc3cc(OCC)c(OCC)cc23)cc1OCC	CP329	6.424	inhibitor, partial curve, poor fit
O=C1N(c2ccccc2)c2ccccc2C1(Cc1ccncc1)Cc1ccncc1	CP297	13.46	inhibitor, single point
O=C1N(c2ccccc2)c2ccccc2C1(Cc1ccncc1)Cc1ccncc1	CP237	17.78	inhibitor, single point
O=C1N(c2ccccc2)c2ccccc2C1(Cc1ccncc1)Cc1ccncc1	ICS	17.78	inhibitor, single point
CCOC(=O)/C=C(C)/C=C/C=C(C)/C=C/c1c(C)cc(OC)c(C)c1C	CP252	12.59	inhibitor, single point
CCOC(=O)/C=C(C)/C=C/C=C(C)/C=C/c1c(C)cc(OC)c(C)c1C	DFO2036	17.78	inhibitor, single point
CCOC(=O)/C=C(C)/C=C/C=C(C)/C=C/c1c(C)cc(OC)c(C)c1C	3D7	17.78	inhibitor, single point
CCOC(=O)/C=C(C)/C=C/C=C(C)/C=C/c1c(C)cc(OC)c(C)c1C	CP265	11.22	inhibitor, single point
CCOC(=O)/C=C(C)/C=C/C=C(C)/C=C/c1c(C)cc(OC)c(C)c1C	CP256	12.59	inhibitor, single point
CCOC(=O)/C=C(C)/C=C/C=C(C)/C=C/c1c(C)cc(OC)c(C)c1C	CP238	17.78	inhibitor, single point
CCOC(=O)/C=C(C)/C=C/C=C(C)/C=C/c1c(C)cc(OC)c(C)c1C	ECU	17.78	inhibitor, single point
CCOC(=O)/C=C(C)/C=C/C=C(C)/C=C/c1c(C)cc(OC)c(C)c1C	Dd2	12.59	inhibitor, partial curve, poor fit
CCOC(=O)/C=C(C)/C=C/C=C(C)/C=C/c1c(C)cc(OC)c(C)c1C	PC26	10.69	inhibitor, single point
CCOC(=O)/C=C(C)/C=C/C=C(C)/C=C/c1c(C)cc(OC)c(C)c1C	CP286	15.85	inhibitor, single point
CCOC(=O)/C=C(C)/C=C/C=C(C)/C=C/c1c(C)cc(OC)c(C)c1C	P93_24	10	inhibitor, single point
CCOC(=O)/C=C(C)/C=C/C=C(C)/C=C/c1c(C)cc(OC)c(C)c1C	AA1029	12.59	inhibitor, single point
CCOC(=O)/C=C(C)/C=C/C=C(C)/C=C/c1c(C)cc(OC)c(C)c1C	CP335	13.46	inhibitor, single point
CCOC(=O)/C=C(C)/C=C/C=C(C)/C=C/c1c(C)cc(OC)c(C)c1C	N140	10	inhibitor, single point
CCOC(=O)/C=C(C)/C=C/C=C(C)/C=C/c1c(C)cc(OC)c(C)c1C	CP250	17.78	inhibitor, single point

2 of the entries, repeated:

* CCOc1ccc(Cc2nccc3cc(OCC)c(OCC)cc23)cc1OCC [CP215] : fitted potency 5.726 µM (inhibitor, single point)
* CCOC(=O)/C=C(C)/C=C/C=C(C)/C=C/c1c(C)cc(OC)c(C)c1C [N140] : fitted potency 10 µM (inhibitor, single point)

From PubChem BioAssay record AID504749 (NCATS, 2011).